Binding data for 7 molecules are collected here from article doi:10.1101/2024.02.27.582366.

Protein sequences, listed by entry. Tags and fused reporters are not part of them.
UniProt P84096: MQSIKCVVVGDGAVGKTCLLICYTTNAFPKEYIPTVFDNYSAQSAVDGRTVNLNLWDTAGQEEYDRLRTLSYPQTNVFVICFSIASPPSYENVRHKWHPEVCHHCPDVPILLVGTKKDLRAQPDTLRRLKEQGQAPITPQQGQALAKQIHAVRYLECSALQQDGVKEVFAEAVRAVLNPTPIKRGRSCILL
UniProt P62746: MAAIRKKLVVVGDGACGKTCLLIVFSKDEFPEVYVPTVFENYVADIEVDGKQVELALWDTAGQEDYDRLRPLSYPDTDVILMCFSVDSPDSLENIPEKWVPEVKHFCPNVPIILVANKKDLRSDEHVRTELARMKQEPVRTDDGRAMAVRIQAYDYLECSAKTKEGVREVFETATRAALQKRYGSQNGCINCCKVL
UniProt P43006: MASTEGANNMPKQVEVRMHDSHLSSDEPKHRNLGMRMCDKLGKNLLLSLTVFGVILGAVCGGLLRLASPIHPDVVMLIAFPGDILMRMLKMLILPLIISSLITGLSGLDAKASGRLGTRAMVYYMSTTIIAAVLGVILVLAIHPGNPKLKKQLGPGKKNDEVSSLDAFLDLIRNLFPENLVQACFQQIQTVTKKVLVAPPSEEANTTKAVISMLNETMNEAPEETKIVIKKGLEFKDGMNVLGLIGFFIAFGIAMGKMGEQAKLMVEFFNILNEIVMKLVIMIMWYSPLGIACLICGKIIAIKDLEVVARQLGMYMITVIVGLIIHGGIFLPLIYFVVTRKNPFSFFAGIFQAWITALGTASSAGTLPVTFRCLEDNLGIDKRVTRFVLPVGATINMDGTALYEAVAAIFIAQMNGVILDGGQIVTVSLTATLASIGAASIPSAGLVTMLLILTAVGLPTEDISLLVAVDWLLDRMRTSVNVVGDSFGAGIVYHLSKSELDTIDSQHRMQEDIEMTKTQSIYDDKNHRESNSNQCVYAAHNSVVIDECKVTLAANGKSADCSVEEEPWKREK

Like-named read-outs stand apart in the source and are kept apart here. These are yes or no findings as the source states them, for the method shown. Binding seen in cells or lysates may run through a third protein. These calls come from enrichment with a bait or labelling near it, and not all partners need be listed. Sequences can lack the tags named with a protein.

The target of assay [1] is T1, Flag-tagged human Thioredoxin1 Cys35Ser mutant (flag-hTrx1C35S) (human) (UniProt P10599).
T1 sequence: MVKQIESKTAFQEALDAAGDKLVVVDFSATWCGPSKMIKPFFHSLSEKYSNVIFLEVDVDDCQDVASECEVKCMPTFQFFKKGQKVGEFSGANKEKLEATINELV
The assay can be described thus: affinity purification with mass spectrometry.

In assay [2] the target is T1, Flag-tagged human Thioredoxin1 Cys35Ser mutant (flag-hTrx1C35S) (human). The experiment in a line: affinity purification with mass spectrometry. The source holds these as a separate data set.

Consider RhoG (from UniProt P84096 1-191), for which the binding entry in assay [1] is “binds”.

As for “F-actin-capping protein subunit beta (CAPZB) (from UniProt P47757 1-277)”, the binding result in assay [1] is “binds”. With “Synapsin-1 (SYN1) (from UniProt O88935 1-706)”, the binding result in assay [1] is “binds”. On the same count and under the same terms, for RhoB (from UniProt P62746 1-196) the value was “binds”; for “excitatory amino acid transporter 2 (SLC1A2) (from UniProt P43006 1-572)”, “binds”.

B1: Alpha-internexin (INA) (protein, UniProt P46660 1-501)
chain: MSFGSEHYLCSASSYRKVFGDSSRLSARLSGPGGSGSFRSQSLSRSNVASTAACSSASSLGLGLAYRRLPASDGLDLSQAAARTNEYKIIRTNEKEQLQGLNDRFAVFIEKVHQLETQNRALEAELAALRQRHAEPSRVGELFQRELRELRAQLEEASSARAQALLERDGLAEEVQRLRARCEEESRGREGAERALKAQQRDVDGATLARLDLEKKVESLLDELAFVRQVHDEEVAELLATLQASSQAAAEVDVAVAKPDLTSALREIRAQYESLAAKNLQSAEEWYKSKFANLNEQAARSTEAIRASREEIHEYRRQLQARTIEIEGLRGANESLERQILELEERHSAEVAGYQDSIGQLESDLRNTKSEMARHLREYQDLLNVKMALDIEIAAYRKLLEGEETRFSTGGLSISGLNPLPNPSYLLPPRILSSTASKVSSAGLSLKKEEEEEEEEASKEVSKKTSKVGEGFEETLGEAVISTKKTGKSATEESTSSSQKM
In the case of B1, the binding entry in assay [2] is listed as “binds”.

B2: electrogenic sodium bicarbonate cotransporter 1 (SLC4A4) (protein, UniProt O88343 1-1079)
chain: MEDEAVLDRGASFLKHVCDEEEVEGHHTIYIGVHVPKSYRRRRRHKRKAGHKEKKEKERISENYSDKSDVENADESSSSILKPLISPAAERIRFILGEEDDSPAPPQLFTELDELLAVDGQEMEWKETARWIKFEEKVEQGGERWSKPHVATLSLHSLFELRTCMEKGSIMLDREASSLPQLVEMIADHQIETGLLKPDLKDKVTYTLLRKHRHQTKKSNLRSLADIGKTVSSASRMFSNPDNGSPAMTHRNLTSSSLNDISDKPEKDQLKNKFMKKLPRDAEASNVLVGEVDFLDTPFIAFVRLQQAVMLGALTEVPVPTRFLFILLGPKGKAKSYHEIGRAIATLMSDEVFHDIAYKAKDRHDLIAGIDEFLDEVIVLPPGEWDPTIRIEPPKSLPSSDKRKNMYSGGENVQMNGDTPHDGGHGGGGHGDCEELQRTGRFCGGLIKDIKRKAPFFASDFYDALNIQALSAILFIYLATVTNAITFGGLLGDATDNMQGVLESFLGTAVSGAIFCLFAGQPLTILSSTGPVLVFERLLFNFSKDHNFDYLEFRLWIGLWSAFMCLVLVATDASFLVQYFTRFTEEGFSSLISFIFIYDAFKKMIKLADYYPINSDFKVGYNTHFSCACLPPDPVNLSVSNDTTLAPEDLPTISSTDMYHNVTFDWAYLSKKECVKYGGKLVGNNCDFVPDITLMSFILFLGTYTSSMAMKKFKTSRYFPTTARKLISDFAIILSILIFCVIDALVGVDTPKLIVPSEFKPTSPNRGWFVPPFGGNPWWVCLAAAIPALLVTILIFMDQQITAVIVNRKEHKLKKGAGYHLDLFWVAILMVVCSFMALPWYVAATVISIAHIDSLKMETETSAPGEQPKFLGVREQRVTGTLVFILTGLSVFMAPILKFIPMPVLYGVFLYMGVASLNGVQFMDRLKLLLMPLKHQPDFIYLRHVPLRRVHLFTFLQVLCLALLWILKSTVAAIIFPVMILALVAVRKGMDYLFSQHDLSFLDDVIPEKDKKKKEDEKKKKKKKGSLDSDNDDSDCPYSEKVPSIKIPMDIMEQQPFLSDNKPLDRERSSTFLERHTSC
Regarding B2, in assay [2], the binding entry is “binds”.
